Our source for the binding values is PMC3979729.

By UniProt entry, the sequences of proteins in these tests, tags left out.
UniProt Q13546: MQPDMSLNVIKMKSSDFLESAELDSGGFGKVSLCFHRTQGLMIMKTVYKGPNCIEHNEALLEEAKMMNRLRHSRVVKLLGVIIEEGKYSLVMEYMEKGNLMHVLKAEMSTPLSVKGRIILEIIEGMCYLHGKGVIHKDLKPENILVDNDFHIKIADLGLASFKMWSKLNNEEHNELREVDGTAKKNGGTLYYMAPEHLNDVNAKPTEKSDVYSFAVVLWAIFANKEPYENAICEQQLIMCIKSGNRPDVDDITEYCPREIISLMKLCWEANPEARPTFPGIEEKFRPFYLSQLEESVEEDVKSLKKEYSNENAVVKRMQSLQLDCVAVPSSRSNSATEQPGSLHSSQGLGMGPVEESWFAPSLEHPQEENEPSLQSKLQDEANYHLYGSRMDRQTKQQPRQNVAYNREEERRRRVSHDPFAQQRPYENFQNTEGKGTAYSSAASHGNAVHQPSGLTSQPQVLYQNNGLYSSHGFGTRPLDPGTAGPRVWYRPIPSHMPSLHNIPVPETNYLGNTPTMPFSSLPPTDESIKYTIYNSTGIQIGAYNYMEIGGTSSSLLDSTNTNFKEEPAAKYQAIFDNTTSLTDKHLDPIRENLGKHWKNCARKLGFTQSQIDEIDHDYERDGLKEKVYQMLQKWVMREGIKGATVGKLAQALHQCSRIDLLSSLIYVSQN
UniProt Q9Y572: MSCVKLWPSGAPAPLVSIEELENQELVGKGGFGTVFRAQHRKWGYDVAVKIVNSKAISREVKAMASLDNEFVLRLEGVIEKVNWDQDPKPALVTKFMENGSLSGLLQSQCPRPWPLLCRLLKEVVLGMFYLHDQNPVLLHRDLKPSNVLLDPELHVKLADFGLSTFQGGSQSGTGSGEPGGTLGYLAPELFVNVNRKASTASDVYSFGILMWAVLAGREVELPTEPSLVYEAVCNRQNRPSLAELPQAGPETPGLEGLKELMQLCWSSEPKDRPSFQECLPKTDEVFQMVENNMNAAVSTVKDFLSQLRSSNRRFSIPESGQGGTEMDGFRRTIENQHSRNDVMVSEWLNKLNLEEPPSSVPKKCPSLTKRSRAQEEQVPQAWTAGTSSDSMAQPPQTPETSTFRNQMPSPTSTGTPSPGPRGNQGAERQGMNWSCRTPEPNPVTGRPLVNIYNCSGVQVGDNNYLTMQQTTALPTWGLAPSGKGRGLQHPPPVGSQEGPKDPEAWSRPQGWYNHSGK

No constants are given. Whether binding was seen depends on the method and setting. Binding seen in cells or lysates may run through a third protein. Some entries that bind do so weakly or less than the wild type.

This assay deals with RIPK1-HA (UniProt Q13546). Nature of the assay: co-IP.

Regarding RIPK3-FLAG (from UniProt Q9Y572 1-518), the binding result is recorded as “binds”.
